# In the supplement of paper PMC8728848:
# This is one part of the list.
# How the values were obtained:
# Assay in all cases: glycan array binding signal (z-score within array); higher = stronger binding
# Details in all cases: glycan notation: IUPAC condensed, linker removed
# [1] = target: Gal3S(b1-4)[Fuc(a1-3)]Glc
# Method in brief: (§1)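 The binding signal is a Z-score computed within each array. Data were drawn from 3228 arrays in the Consortium for Functional Glycomics database, restricted to those with a known protein sequence. Scores were averaged over arrays of the same protein sequence at different concentrations or buffers, and over linkers, and negative values can be taken as non-binding.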
# [2] = target: Gal3S(b1-4)[Fuc(a1-3)]Glc6S
# Method in brief: as §1
# Gal3S4S(b1-4)GlcNAc = target: Gal3S4S(b1-4)GlcNAc
# Method in brief: as §1
# Gal3S6S(b1-4)GlcNAc = target: Gal3S6S(b1-4)GlcNAc
# Method in brief: as §1
# Gal3S6S(b1-4)GlcNAc6S = target: Gal3S6S(b1-4)GlcNAc6S
# Method in brief: as §1
# Gal4S(b1-4)GlcNAc = target: Gal4S(b1-4)GlcNAc
# Method in brief: as §1
# Gal4S6S(b1-4)GlcNAc = target: Gal4S6S(b1-4)GlcNAc
# Method in brief: as §1
# Gal6S(b1-4)Glc = target: Gal6S(b1-4)Glc
# Method in brief: as §1
# Gal6S(b1-4)Glc6S = target: Gal6S(b1-4)Glc6S
# Method in brief: as §1
# Gal6S(b1-4)GlcNAc = target: Gal6S(b1-4)GlcNAc
# Method in brief: as §1
# Gal6S(b1-4)GlcNAc6S = target: Gal6S(b1-4)GlcNAc6S
# Method in brief: as §1
# GalNAc(a1-3)Gal = target: GalNAc(a1-3)Gal
# Method in brief: as §1
# GalNAc(a1-3)GalNAc = target: GalNAc(a1-3)GalNAc
# Method in brief: as §1
# [3] = target: GalNAc(a1-3)GalNAc(a1-3)Gal(a1-4)Gal(b1-4)GlcNAc
# Method in brief: as §1
# GalNAc(b1-3)Gal = target: GalNAc(b1-3)Gal
# Method in brief: as §1
# [4] = target: GalNAc(b1-3)Gal(a1-4)Gal(b1-4)GlcNAc
# Method in brief: as §1
# [5] = target: GalNAc(b1-3)Gal(a1-4)Gal(b1-4)GlcNAc(b1-3)Gal(b1-4)Glc
# Method in brief: as §1
# [6] = target: GalNAc(b1-3)Gal(a1-6)Gal(b1-4)Glc
# Method in brief: as §1
# GalNAc(b1-3)GalNAc = target: GalNAc(b1-3)GalNAc
# Method in brief: as §1
# GalNAc(b1-4)GlcNAc = target: GalNAc(b1-4)GlcNAc
# Method in brief: as §1
# [7] = target: GalNAc(b1-4)GlcNAc(b1-2)Man(a1-3)[GalNAc(b1-4)GlcNAc(b1-2)Man(a1-6)]Man(b1-4)GlcNAc(b1-4)GlcNAc
# Method in brief: as §1
# Glc(a1-4)Glc = target: Glc(a1-4)Glc
# Method in brief: as §1
# Glc(a1-6)Glc(a1-6)Glc = target: Glc(a1-6)Glc(a1-6)Glc
# Method in brief: as §1
# Glc(b1-4)Glc = target: Glc(b1-4)Glc
# Method in brief: as §1
# Glc(b1-6)Glc = target: Glc(b1-6)Glc
# Method in brief: as §1
# GlcA(b1-3)Gal = target: GlcA(b1-3)Gal
# Method in brief: as §1
# GlcA(b1-3)GlcNAc = target: GlcA(b1-3)GlcNAc
# Method in brief: as §1
# GlcA(b1-6)Gal = target: GlcA(b1-6)Gal
# Method in brief: as §1
# [8] = target: GlcNAc(a1-3)Gal(b1-4)GlcNAc
# Method in brief: as §1
# [9] = target: GlcNAc(a1-4)Gal(b1-3)GlcNAc
# Method in brief: as §1
# [10] = target: GlcNAc(a1-4)Gal(b1-4)GalNAc
# Method in brief: as §1
# [11] = target: GlcNAc(a1-4)Gal(b1-4)GlcNAc
# Method in brief: as §1
# [12] = target: GlcNAc(a1-4)Gal(b1-4)GlcNAc(b1-3)Gal(b1-4)Glc
# Method in brief: as §1
# [13] = target: GlcNAc(a1-4)Gal(b1-4)GlcNAc(b1-3)Gal(b1-4)GlcNAc
# Method in brief: as §1
# [14] = target: GlcNAc(a1-4)Gal(b1-4)GlcNAc(b1-3)Gal(b1-4)GlcNAc(b1-3)Gal(b1-4)GlcNAc
# Method in brief: as §1
# [15] = target: GlcNAc(a1-4)Gal(b1-4)GlcNAc(b1-3)Gal(b1-4)[Fuc(a1-3)]GlcNAc(b1-3)Gal(b1-4)[Fuc(a1-3)]GlcNAc
# Method in brief: as §1
# [16] = target: GlcNAc(a1-6)Gal(b1-4)GlcNAc
# Method in brief: as §1
# [17] = target: GlcNAc(b1-2)Gal(b1-3)GalNAc
# Method in brief: as §1
# [18] = target: GlcNAc(b1-2)Man(a1-3)[GlcNAc(b1-2)Man(a1-6)]Man(b1-4)GlcNAc(b1-4)GlcNAc
# Method in brief: as §1
# [19] = target: GlcNAc(b1-2)Man(a1-3)[GlcNAc(b1-2)Man(a1-6)]Man(b1-4)GlcNAc(b1-4)[Fuc(a1-6)]GlcNAc
# Method in brief: as §1
# [20] = target: GlcNAc(b1-2)[GlcNAc(b1-4)]Man(a1-3)[GlcNAc(b1-2)Man(a1-6)]Man(b1-4)GlcNAc(b1-4)GlcNAc
# Method in brief: as §1
# GlcNAc(b1-3)Gal = target: GlcNAc(b1-3)Gal
# Method in brief: as §1
# [21] = target: GlcNAc(b1-3)Gal(b1-3)GalNAc
# Method in brief: as §1
# GlcNAc(b1-3)Gal(b1-4)Glc = target: GlcNAc(b1-3)Gal(b1-4)Glc
# Method in brief: as §1
# [22] = target: GlcNAc(b1-3)Gal(b1-4)GlcNAc
# Method in brief: as §1
binder,measurement,setting,value
"Flo10 (Saccharomyces cerevisiae), P36170 (protein) MPVAARYIFLTGLFLLSVANVALGTTEACLPAGEKKNGMTINFYQYSLKDSSTYSNPSYMAYGYADAEKLGSVSGQTKLSIDYSIPCNGASDTCACSDDDATEYSASQVVPVKRGVKLCSDNTTLSSKTEKRENDDCDQGAAYWSSDLFGFYTTPTNVTVEMTGYFLPPKTGTYTFGFATVDDSAILSVGGNVAFECCKQEQPPITSTDFTINGIKPWNADAPTDIKGSTYMYAGYYYPIKIVYSNAVSWGTLPVSVVLPDGTEVNDDFEGYVFSFDDNATQAHCSVPNPAEHARTCVSSATSSWSSSEVCTECTETESTSYVTPYVTSSSWSSSEVCTECTETESTSTSTPYVTSSSSSSSEVCTECTETESTSYVTPYVSSSTAAANYTSSFSSSSEVCTECTETESTSTSTPYVTSSSWSSSEVCTECTETESTSYVTPYVSSSTAAANYTSSFSSSSEVCTECTETESTSTSTPYVTSSSSSSSEVCTECTETESTSYVTPYVSSSTAAANYTSSFSSSSEVCTECTETESTSTSTPYVTSSSWSSSEVCTECTETESTSYVTPYVSSSTAAANYTSSFSSSSEVCTECTETESTSTSTPYATSSTGTATSFTASTSNTMTSLVQTDTTVSFSLSSTVSEHTNAPTSSVESNASTFISSNKGSVKSYVTSSIHSITPMYPSNQTVTSSSVVSTPITSESSESSASVTILPSTITSEFKPSTMKTKVVSISSSPTNLITSYDTTSKDSTVGSSTSSVSLISSISLPSSYSASSEQIFHSSIVSSNGQALTSFSSTKVSSSESSESHRTSPTTSSESGIKSSGVEIESTSTSSFSFHETSTASTSVQISSQFVTPSSPISTVAPRSTGLNSQTESTNSSKETMSSENSASVMPSSSATSPKTGKVTSDETSSGFSRDRTTVYRMTSETPSTNEQTTLITVSSCESNSCSNTVSSAVVSTATTTINGITTEYTTWCPLSATELTTVSKLESEEKTTLITVTSCESGVCSETASPAIVSTATATVNDVVTVYSTWSPQATNKLAVSSDIENSASKASFVSEAAETKSISRNNNFVPTSGTTSIETHTTTTSNASENSDNVSASEAVSSKSVTNPVLISVSQQPRGTPASSMIGSSTASLEMSSYLGIANHLLTNSGISIFIASLLLAIV",glycan array binding signal (z-score),[1],0.174
same,glycan array binding signal (z-score),[2],-0.042
same,glycan array binding signal (z-score),Gal3S4S(b1-4)GlcNAc,-0.551
same,glycan array binding signal (z-score),Gal3S6S(b1-4)GlcNAc,-0.234
same,glycan array binding signal (z-score),Gal3S6S(b1-4)GlcNAc6S,-0.023
same,glycan array binding signal (z-score),Gal4S(b1-4)GlcNAc,-0.526
same,glycan array binding signal (z-score),Gal4S6S(b1-4)GlcNAc,-0.042
same,glycan array binding signal (z-score),Gal6S(b1-4)Glc,-0.433
same,glycan array binding signal (z-score),Gal6S(b1-4)Glc6S,-0.635
same,glycan array binding signal (z-score),Gal6S(b1-4)GlcNAc,0.486
same,glycan array binding signal (z-score),Gal6S(b1-4)GlcNAc6S,-0.171
same,glycan array binding signal (z-score),GalNAc(a1-3)Gal,-0.643
same,glycan array binding signal (z-score),GalNAc(a1-3)GalNAc,0.641
same,glycan array binding signal (z-score),[3],1.74
same,glycan array binding signal (z-score),GalNAc(b1-3)Gal,-0.02
same,glycan array binding signal (z-score),[4],-0.086
same,glycan array binding signal (z-score),[5],0.051
same,glycan array binding signal (z-score),[6],-0.154
same,glycan array binding signal (z-score),GalNAc(b1-3)GalNAc,0.005
same,glycan array binding signal (z-score),GalNAc(b1-4)GlcNAc,0.528
same,glycan array binding signal (z-score),[7],-0.5
same,glycan array binding signal (z-score),Glc(a1-4)Glc,-0.77
same,glycan array binding signal (z-score),Glc(a1-6)Glc(a1-6)Glc,0.586
same,glycan array binding signal (z-score),Glc(b1-4)Glc,-0.429
same,glycan array binding signal (z-score),Glc(b1-6)Glc,-0.68
same,glycan array binding signal (z-score),GlcA(b1-3)Gal,-0.688
same,glycan array binding signal (z-score),GlcA(b1-3)GlcNAc,-0.631
same,glycan array binding signal (z-score),GlcA(b1-6)Gal,0.66
same,glycan array binding signal (z-score),[8],0.846
same,glycan array binding signal (z-score),[9],0.028
same,glycan array binding signal (z-score),[10],0.33
same,glycan array binding signal (z-score),[11],0.909
same,glycan array binding signal (z-score),[12],-0.191
same,glycan array binding signal (z-score),[13],1.27
same,glycan array binding signal (z-score),[14],-0.649
same,glycan array binding signal (z-score),[15],-0.159
same,glycan array binding signal (z-score),[16],-0.682
same,glycan array binding signal (z-score),[17],-0.768
same,glycan array binding signal (z-score),[18],-0.394
same,glycan array binding signal (z-score),[19],-0.276
same,glycan array binding signal (z-score),[20],0.012
same,glycan array binding signal (z-score),GlcNAc(b1-3)Gal,-0.619
same,glycan array binding signal (z-score),[21],2.82
same,glycan array binding signal (z-score),GlcNAc(b1-3)Gal(b1-4)Glc,-0.205
same,glycan array binding signal (z-score),[22],-0.536

# Not a retest: an excerpt of the list.
binder,measurement,setting,value
"Flo10 (Saccharomyces cerevisiae), P36170 (protein) MPVAARYIFLTGLFLLSVANVALGTTEACLPAGEKKNGMTINFYQYSLKDSSTYSNPSYMAYGYADAEKLGSVSGQTKLSIDYSIPCNGASDTCACSDDDATEYSASQVVPVKRGVKLCSDNTTLSSKTEKRENDDCDQGAAYWSSDLFGFYTTPTNVTVEMTGYFLPPKTGTYTFGFATVDDSAILSVGGNVAFECCKQEQPPITSTDFTINGIKPWNADAPTDIKGSTYMYAGYYYPIKIVYSNAVSWGTLPVSVVLPDGTEVNDDFEGYVFSFDDNATQAHCSVPNPAEHARTCVSSATSSWSSSEVCTECTETESTSYVTPYVTSSSWSSSEVCTECTETESTSTSTPYVTSSSSSSSEVCTECTETESTSYVTPYVSSSTAAANYTSSFSSSSEVCTECTETESTSTSTPYVTSSSWSSSEVCTECTETESTSYVTPYVSSSTAAANYTSSFSSSSEVCTECTETESTSTSTPYVTSSSSSSSEVCTECTETESTSYVTPYVSSSTAAANYTSSFSSSSEVCTECTETESTSTSTPYVTSSSWSSSEVCTECTETESTSYVTPYVSSSTAAANYTSSFSSSSEVCTECTETESTSTSTPYATSSTGTATSFTASTSNTMTSLVQTDTTVSFSLSSTVSEHTNAPTSSVESNASTFISSNKGSVKSYVTSSIHSITPMYPSNQTVTSSSVVSTPITSESSESSASVTILPSTITSEFKPSTMKTKVVSISSSPTNLITSYDTTSKDSTVGSSTSSVSLISSISLPSSYSASSEQIFHSSIVSSNGQALTSFSSTKVSSSESSESHRTSPTTSSESGIKSSGVEIESTSTSSFSFHETSTASTSVQISSQFVTPSSPISTVAPRSTGLNSQTESTNSSKETMSSENSASVMPSSSATSPKTGKVTSDETSSGFSRDRTTVYRMTSETPSTNEQTTLITVSSCESNSCSNTVSSAVVSTATTTINGITTEYTTWCPLSATELTTVSKLESEEKTTLITVTSCESGVCSETASPAIVSTATATVNDVVTVYSTWSPQATNKLAVSSDIENSASKASFVSEAAETKSISRNNNFVPTSGTTSIETHTTTTSNASENSDNVSASEAVSSKSVTNPVLISVSQQPRGTPASSMIGSSTASLEMSSYLGIANHLLTNSGISIFIASLLLAIV",glycan array binding signal (z-score),GalNAc(a1-3)GalNAc,0.641
same,glycan array binding signal (z-score),[3],1.74
same,glycan array binding signal (z-score),GalNAc(b1-3)Gal,-0.02
same,glycan array binding signal (z-score),[4],-0.086
same,glycan array binding signal (z-score),[5],0.051
same,glycan array binding signal (z-score),[6],-0.154
same,glycan array binding signal (z-score),GalNAc(b1-3)GalNAc,0.005
same,glycan array binding signal (z-score),GalNAc(b1-4)GlcNAc,0.528
